Source: PubChem BioAssay AID540275 (National Center for Advancing Translational Sciences (NCATS), 2011)
Out of some 320,000 compounds screened, about 620 (0.19%) were called active. The shares of active, inactive and inconclusive entries below differ from those in the screen. Rule as the data show it: active = activation above about 80%; inconclusive = between about 30% and that limit; inactive = weaker than that.

The chains behind the UniProt entries cited, without tags or fusion partners.
UniProt Q8NER1, whole entry, looked up: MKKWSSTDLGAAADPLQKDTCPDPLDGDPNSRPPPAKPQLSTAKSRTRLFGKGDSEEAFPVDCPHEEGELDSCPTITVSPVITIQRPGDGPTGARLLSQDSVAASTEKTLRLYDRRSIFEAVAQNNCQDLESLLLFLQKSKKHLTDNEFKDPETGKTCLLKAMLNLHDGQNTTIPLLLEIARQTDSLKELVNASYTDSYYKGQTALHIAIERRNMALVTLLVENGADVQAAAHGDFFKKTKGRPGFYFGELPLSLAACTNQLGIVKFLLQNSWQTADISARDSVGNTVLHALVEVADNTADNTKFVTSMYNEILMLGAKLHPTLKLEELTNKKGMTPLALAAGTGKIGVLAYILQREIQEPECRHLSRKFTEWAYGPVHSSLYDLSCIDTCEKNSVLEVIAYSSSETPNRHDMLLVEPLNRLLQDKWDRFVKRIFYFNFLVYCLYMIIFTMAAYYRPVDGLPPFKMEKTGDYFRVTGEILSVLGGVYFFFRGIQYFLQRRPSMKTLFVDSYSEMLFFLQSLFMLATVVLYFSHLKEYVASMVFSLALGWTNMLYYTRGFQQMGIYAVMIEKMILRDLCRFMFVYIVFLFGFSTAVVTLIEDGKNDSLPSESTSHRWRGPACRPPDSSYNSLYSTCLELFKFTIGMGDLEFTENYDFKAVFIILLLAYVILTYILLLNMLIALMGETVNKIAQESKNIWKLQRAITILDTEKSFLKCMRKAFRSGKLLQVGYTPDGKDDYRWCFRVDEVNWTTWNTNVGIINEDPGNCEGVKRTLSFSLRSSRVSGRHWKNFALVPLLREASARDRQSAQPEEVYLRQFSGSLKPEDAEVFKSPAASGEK

Biological target: Transient receptor potential cation channel subfamily V member 1 (Homo sapiens) (UniProt Q8NER1)
Assay: HTS Assay for Compounds that Act as Agonists of the Vanilloid Receptor 1; also: 0% is about no effect
Settings: TRPV1-expressing cells, Fluo-8 calcium influx, agonist mode; at 8.33 µM, active compounds read high
How it was run: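 Fluo-8 calcium influx in TRPV1-expressing cells, kinetic read (ex 480/em 520 nm). Compound added and read 3 min for agonist activity, followed by capsaicin at EC20 final and 2 min further read for enhancement.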

Row | SMILES | activation
1 | CN(C)c1ccc(-c2n[nH]c(=S)n2-c2ccccc2)cc1 | inactive: 7.89%
2 | O=C(NCCc1ccccc1)c1cc(=O)c2ccccc2o1 | inconclusive: 53%
3 | S=C(NC1CCCC1)N1CCN(c2cccc(Cl)c2)CC1 | inconclusive: 60%
4 | Cc1ccc(Cn2nnc3c(=O)n(Cc4ccccc4C)cnc32)cc1 | inconclusive: 30.3%
5 | Cc1cc(C)cc(-c2nnc(SCc3ccc(C(=O)O)cc3)o2)c1 | inconclusive: 40%
6 | COCc1ccc(C(=O)N2CCCC(Nc3ccc(C(C)C)cc3)C2)o1 (stereo unspecified) | inconclusive: 73.5%
7 | O=C(Cn1c(-c2ccccc2)noc1=O)N1CCC(Cc2ccccc2)CC1 | inconclusive: 54.4%
8 | O=C(C1CC1)N1CCN(C(c2ccccc2)c2ccccc2)CC1 | inconclusive: 57.9%
9 | CCOC(=O)c1cc(C#N)c(Oc2ccc(F)cc2)nc1-c1ccccc1 | inconclusive: 44.2%
10 | O=C(Nc1cccc(OC(=O)c2ccc(Br)o2)c1)c1ccccc1 | inconclusive: 31.6%
11 | CCOc1ccc(NC(=O)N2CCN(Cc3ccc4c(c3)OCO4)CC2)cc1 | inconclusive: 49.3%
12 | S=C(NCc1ccc2c(c1)OCO2)NCc1ccc2c(c1)OCO2 | inconclusive: 72%
13 | O=C(/C=C/c1cnc2ccccc2n1)NC12CC3CC(CC(C3)C1)C2 | inconclusive: 35.8%
14 | Cc1ccc(C)c(Cn2c(=O)c3c(nc4n3CCN4Cc3ccco3)n(C)c2=O)c1 | inconclusive: 37.1%
15 | Cc1ccc2[nH]c3c(NCc4ccccc4)ncnc3c2c1 | inactive: 0.152%
16 | CCCOC(=O)c1c(NC(=O)/C=C/c2cnn(C)c2C)sc(C(=O)OCC)c1C | inactive: 1.82%
17 | O=C(NCCOCc1ccccc1)C(c1ccccc1)c1ccccc1 | inconclusive: 33.7%
18 | C=CCOc1ccccc1CN(CCc1ccccc1)C(=O)c1cccc(S(C)(=O)=O)c1 | inconclusive: 30.8%
19 | O=C(Nc1ccc(C(=O)N2CCOCC2)cc1)c1cc(-c2cccnc2)nc2ccc(Br)cc12 | inactive: 1.1%
20 | NS(=O)(=O)c1ccc(CCNC(=O)Nc2ccc(Cl)c(Cl)c2)cc1 | inconclusive: 59.7%
21 | O=C(NCc1ccco1)c1ccc(S(=O)(=O)N2CCCc3ccccc32)cc1 | inconclusive: 48.6%
22 | O=C(COc1ccc(Br)cc1)N1CCN(c2ccccc2)CC1 | inconclusive: 45.5%
23 | Fc1ccc(-n2c(-c3ccc4ccccc4n3)n[nH]c2=S)cc1 | inactive: 1.34%

Row | SMILES | activation
24 | O=C(CCC(=O)Nc1ccc(F)cc1)N/N=C/c1cc([N+](=O)[O-])ccc1O | inactive: -0.734%
25 | CC(NC(=S)N1CCN(c2ccccc2)CC1)c1ccccc1 (stereo unspecified) | inconclusive: 32.1%
26 | Cc1cc(C)cc(NC(=O)c2ccc3c(c2)CCN3S(C)(=O)=O)c1 | inconclusive: 61.9%
27 | CCOC(=O)C1=C(N)c2ccccc2CC1C1CCCC1 (stereo unspecified) | inconclusive: 34.8%
28 | OCCN1CCN(c2nc(NCc3ccco3)c3ccccc3n2)CC1 | inactive: -5.55%
29 | CSc1nc(C(=O)N2CCCC(Nc3ccc(C)c(C)c3)C2)cs1 (stereo unspecified) | inconclusive: 75.4%
30 | C1CCN(c2nc(N3CCCCC3)nc(N3CCNCC3)n2)CC1 | inconclusive: 73.1%
31 | CC1CCN(CC(O)COc2ccc(F)cc2)CC1 (stereo unspecified) | inactive: 2.62%
32 | CC(C)C(NC(=O)Cc1ccccc1)C(=O)N1CCN(c2cccc(Cl)c2)CC1 (stereo unspecified) | inactive: -0.824%
33 | O=C(NCCCSc1ccccc1)c1ccc(=O)[nH]c1 | inconclusive: 32.4%
34 | COc1ccc(Cl)cc1NC(=O)CCNC(=O)OCc1ccccc1 | inconclusive: 30.3%
35 | CC(C)(C)NC(=O)c1nn(Cc2ccccc2)c(=O)c2ccccc12 | inconclusive: 41%
36 | CCC(C)(C)NC(=O)C(c1ccc(F)cc1)N(Cc1ccco1)C(=O)c1snc(C(N)=O)c1N (stereo unspecified) | inconclusive: 68.1%
37 | CC(=O)N(CCC(c1ccco1)C(C)C)Cc1ccc(OC(C)C)cc1 (stereo unspecified) | inconclusive: 43.6%
38 | COCc1nc(-c2ccc(-c3ccc(C)cc3)nc2OC)no1 | inconclusive: 53.4%
39 | CC(C)C[C@H](NC(=O)c1nc[nH]c1C(=O)N(C)Cc1ccccc1)C(=O)OC(C)(C)C | inconclusive: 50.8%
40 | CCCNC(=O)C12CCC(C)(c3nc4cc(C)c(C)cc4nc31)C2(C)C (stereo unspecified) | inconclusive: 40.4%
41 | O=C(Nc1nc2c(s1)CCCC2)c1ccc(Br)o1 | inconclusive: 66.6%
42 | Cc1cccc(C(=O)NCC(=O)OCC(=O)NC2CCCCCCC2)c1 | inconclusive: 36.6%
43 | CC(=O)c1ccc(C(=O)N2CCCC(Nc3ccc(C(C)C)cc3)C2)s1 (stereo unspecified) | inconclusive: 79.2%
44 | COc1ccccc1CN(Cc1nc2ccccc2c(=O)[nH]1)C(=O)Nc1ccccc1 | inactive: -0.918%
45 | Cc1cccc(-n2c(C)nc3c(cnn3-c3ccc(F)cc3)c2=O)c1 | inconclusive: 34%
46 | COc1ccc(/C=N/NC(=O)c2ccccc2O)cc1CSc1ccccn1 | inconclusive: 36.5%

A few values from above:
In activation, CC(=O)N(CCC(c1ccco1)C(C)C)Cc1ccc(OC(C)C)cc1 (stereo unspecified) has the entry inconclusive: 43.6%
In activation, CC(C)C(NC(=O)Cc1ccccc1)C(=O)N1CCN(c2cccc(Cl)c2)CC1 (stereo unspecified) has the entry inactive: -0.824%

(further entries)

Row | SMILES | activation
47 | COc1ccc(CC(=O)Nc2cccc(S(=O)(=O)N3CCOCC3)c2)cc1OC | inconclusive: 36.8%
48 | Cc1cc(C)cc(CC(Cc2nc3ccccc3[nH]2)c2nc3ccccc3[nH]2)c1 (stereo unspecified) | inactive: 20.1%
49 | CCOC(=O)c1nnc(-c2ccccc2)nc1NCc1ccccc1 | inconclusive: 45.4%
50 | Cc1nn(-c2nc3ccccc3s2)c(C)c1Oc1ccccc1O | inactive: 2.82%
51 | COC(=O)N1CCN(c2ccc(C)c(C)c2)CC1 | inconclusive: 54.7%
52 | Cc1ccnc(Nc2nc3ccccc3o2)n1 | inactive: -0.553%
53 | Fc1cccc(NC(=S)NCCc2ccccc2)c1 | inconclusive: 75.4%
54 | COC(=O)c1cn(NC(=O)c2cccc(F)c2)c(=O)c2ccccc12 | inconclusive: 61.4%
55 | Cc1cccc(/C=N\NC(=O)c2ccc(Cl)cc2)c1O | inconclusive: 37.8%
56 | CSCCC(NC(=O)C1CCC(C)CC1)C(=O)OCC(=O)c1ccc(Cl)cc1 (stereo unspecified) | inactive: 21.4%
57 | CC(NC(=O)CSCc1ccc(Br)cc1)c1ccccc1 (stereo unspecified) | inconclusive: 39.5%
58 | CCc1ccc(C(=O)NC(=S)Nc2ccccc2N2CCOCC2)cc1 | inconclusive: 41.8%
59 | COC(=O)c1nn(-c2ccc(C)cc2)c2nnc(Cc3ccccc3)c(=O)n12 | inconclusive: 34.9%
60 | CCOC(=O)c1cnc(-n2nc(C)cc2C)nc1NC | inactive: 0.297%
61 | Cc1ccc(-n2cc(CN(C)Cc3nccn3C)c(-c3ccc(F)cc3)n2)cc1 | inconclusive: 42.2%
62 | Cc1ccc(NC(=O)C2=CCN(S(=O)(=O)c3ccc(F)cc3)CC2)c(C)c1 | inconclusive: 42.4%
63 | COc1ccc(NC(=O)c2ccc(COc3ccc(C)cc3)o2)cc1 | inconclusive: 46.1%
64 | O=C(N/N=C\c1ccc(Br)cc1)c1ccc(Cn2cccn2)o1 | inconclusive: 57.5%
65 | Brc1ccc(-c2cn3c(n2)CCc2ccc4cccnc4c2-3)cc1 | inactive: -0.47%
66 | COc1ccc(C(=O)c2sc3nc(-c4ccccc4)ccc3c2N)cc1OC | inactive: 1.46%
67 | O=C(CCn1c(=O)c2cccn2c2ccc(F)cc21)NCc1cccc(F)c1 | inconclusive: 38.3%
68 | COc1cccc(CNC(=O)COC(=O)c2cc(Br)c(Br)s2)c1 | inconclusive: 57.9%
69 | Cc1cc(C(=O)COC(=O)c2ccc3c(c2)OCO3)c(C)n1CC1CCCO1 (stereo unspecified) | inconclusive: 34%

Row | SMILES | activation
70 | Nc1c2c(nc3cccc(Cl)c13)N(c1ccccc1)CC2 | inconclusive: 37.6%
71 | Cc1nc([N+](=O)[O-])cn1Cc1cccc([N+](=O)[O-])c1 | inactive: -0.965%
72 | CCOP(=O)(OCC)c1nc(-c2ccc(Cl)cc2Cl)oc1N1CCCCC1 | inconclusive: 47.4%
73 | CC(Oc1ccc(Cl)cc1)C(=O)Nc1ccc(S(=O)(=O)N2CCOCC2)cc1 (stereo unspecified) | inconclusive: 30%
74 | O=C(/C=C/c1cccs1)Nc1cccnc1 | inconclusive: 49.9%
75 | COc1ccc(-c2cc(C(=O)N3CCCCCC3)c3ccccc3n2)c(OC)c1 | inconclusive: 30.2%
76 | CCOC(=O)C1=C(C)OC(N)=C(C#N)C1c1cc(SCC)oc1C (stereo unspecified) | inconclusive: 36.2%
77 | COc1ccc(S(=O)(=O)NCC2CCCO2)cc1NC(=O)c1ccc(Cl)cc1 (stereo unspecified) | inconclusive: 33.8%
78 | CC(C)CCNC(=O)c1ccc(CSCc2cccc(F)c2)o1 | inconclusive: 38.6%
79 | O=C(CCSc1ccccc1)N1CCN(c2ccccc2F)CC1 | inconclusive: 67.6%
80 | CN(C)/C=C/C(=O)c1cccc(Cl)c1 | inactive: -0.386%
81 | O=C(COC(=O)c1cc(S(=O)(=O)N2CCOCC2)ccc1O)NCC1CCCO1 (stereo unspecified) | inactive: 1.56%
82 | CCc1c(C(=O)Nc2cc(C)cc(C)c2)[nH]c(C)c1C(C)=O | inactive: 6.82%
83 | COc1ccc(-n2nnc3c(=O)n(CC(=O)NCC4CCCO4)cnc32)cc1 (stereo unspecified) | inactive: -0.865%
84 | COc1ccc(-c2cc(C3CCN(c4cc(Cl)nc(N)n4)CC3)[nH]n2)cc1 | inactive: -0.0984%
85 | Cc1cnc(NC(=O)CSc2ncc(-c3ccccc3)n2Cc2ccco2)s1 | inconclusive: 35.4%
86 | COc1ccc(C(=O)N2c3ccccc3C=CC2C#N)cc1 (stereo unspecified) | inactive: 2.81%
87 | COc1ccc2c3c(cccc13)C(=O)CC2 | inconclusive: 48.6%
88 | CC(C)N(C(=O)Cn1c(-c2cccnc2)ccc(C#N)c1=O)C(C)C | inconclusive: 47.9%
89 | CCOc1cc(C(=O)N/N=C/c2ccsc2)cc(OCC)c1OCC | inconclusive: 38.6%
90 | O=C(CSCc1ccc([N+](=O)[O-])cc1)NC1CCCCCC1 | inconclusive: 56.3%
91 | CC(C)(C)C(=O)NC(=S)NNC(=O)c1ccc(Cl)cc1Cl | inconclusive: 48.9%
